# In paper PMC7816512:
# Results are given in words; binding and its absence hold for the method and conditions named. Binding seen in cells or lysates may run through a third protein. Here binding means that the protein was enriched with, or labelled near, the bait; the list need not be complete. Where a sequence is shown, tags or fusion partners need not be part of it.
# T1: FLAG-HA-Rbm10 (S. pombe) (UniProt P87143)
# T1 sequence: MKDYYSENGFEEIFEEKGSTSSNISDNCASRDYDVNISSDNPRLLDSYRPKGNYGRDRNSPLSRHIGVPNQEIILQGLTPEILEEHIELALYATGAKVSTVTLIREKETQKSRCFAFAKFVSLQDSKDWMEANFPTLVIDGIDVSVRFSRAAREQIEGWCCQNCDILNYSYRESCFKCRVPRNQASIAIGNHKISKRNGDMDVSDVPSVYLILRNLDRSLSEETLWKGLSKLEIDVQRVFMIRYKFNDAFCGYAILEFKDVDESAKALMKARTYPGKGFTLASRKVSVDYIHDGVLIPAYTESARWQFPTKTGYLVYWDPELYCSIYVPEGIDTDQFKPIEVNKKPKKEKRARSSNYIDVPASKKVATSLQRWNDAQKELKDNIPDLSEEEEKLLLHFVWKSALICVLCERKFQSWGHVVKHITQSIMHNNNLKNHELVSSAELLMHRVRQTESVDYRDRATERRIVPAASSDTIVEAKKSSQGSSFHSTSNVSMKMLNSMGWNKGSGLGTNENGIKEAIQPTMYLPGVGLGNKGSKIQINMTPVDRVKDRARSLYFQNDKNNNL
# B1: Spt6 (protein, UniProt Q09915 1-1365)
# chain: MSENEVVGSPTTNGDKNEDGYPAENGEGTNVDDNNNEEEKDGIPLDNDNDENDSSEESATDEEAERQVREGFIVEDEEDEVPQEIRRKKKRKKHAESTADQDMLDEEDLELVMENTGQGSRFSKLRRLKRGRDQEETLENIFSEEEEEEENEVDDEAPNRTQGHRAGVIDEFADFIEQDEFEDEERQEEKYETGPPIESVRPEALGISDDDYIQIYEVFGDGTDYAFALEDEDAEDELEESVSLKTIFEPSELKDKMLTEEDEIIRITDEPERMQLYMKRNIDCSEDEFREQVAWIIDYLLKNRRDIDAELYEPFQTAVRYVVHFFIRDSLEVPFIWQHRRDYIVHNNRERNTITPLLSQNDLWNIFFLCTKFWSLHSKKQDILKLYSDLGINDDLVVPFCEAASSLDAIDDLNDYIHFTYSEQIRDRALLMGTGLRRPQGSKYSFFEKFRKSSLYNLVKEFGMSAKDFSFNVAQGARLRFVEDNTLSPEELSRTYVTNELSSPEQVLQKARRVLAEEIIHDPQFRKSFRDKLYNAGVVTVLATQKGVRKIGSEHPYYEFKYLKRKPLGSFELEPILFLKMLKAEEEGLIQLSIEFEDPDDVFKGLLELFVSDNFSENAMQWNAQRELVLKEVFKRFSALAPDAIRETLRSRYLDELGMRCRNQLFSRLDQAPYEPSTKNFDRGTIPSVLAVSNGKGESSDAIICVFVDDVGEPTDSLKLADLRDLANQAMFAEFVEKVKPDVIGVSGMSVSAHKIRQHVQDSLTSHEPVDLIMVNDEVARLYQNSTRAVDEFPTLPTISCYCVALARYVQNPLFEYAAMGRDLMSLSFDPWQHLLPPDVLWKYLETALVDISSLVGIDINEAVTNKYEANILPYIAGLGPRKADYVLKKIAATGGRIDNRSDLISKQIMSRKVFINCSSFFIIPNDEYPNMDILDSTRIHNEDYELARKMASDALELDEEDIEELETNRGVVYHLLEENETGKLDELVLEEYADQLEREFHQKKRNTLEKIRLELKDPYGEQRNVFHKLTPSEIFLMLTGENPEELQADAIVPVNVRRVTNRFVAVKLDCGIDGNIKADEVSDDFIPPPQLLQVGQTVEGVIISLDEANFMVDLSLRNSVLQSANSKRQTSSHRTSYWDTEAEKRDTERMQAETQAEQRVARVIKHPLFKDLNASQAEAYLSKMQVGDLVIRPSSKGSDHIVVTWKVAEGSYQHIDVLELEKENEFTIGQKLLVKGRFEKMTYQYSDLDELIVLHIKAIAKKIDEMCIHDKFRKGTQAETEKWLESYSEANPKRSCYAFCFDHQHPGYFILCFKASVNSPVTAWPVKVIPNAFFLQGNVYGDMTALCNGFKLLYAARTKNFRRM
# B2: Sap114 (protein, UniProt O13900 1-481)
# chain: MSSLMEFQDRNTTNNETEHQKSITDQSSSVPAGVILPPPAIREIIDKSASYVARNGPAFEEKIRQNEQANTKFAFLHANDPYHPYYQHKLTEAREGKLKSHATGLSTQKTSTLARPIQKPIEATIPAPSPYLFSEPLPSISSLDLDVLRLTARYAAVRGSSFLVSLSQKEWNNTQFDFLKPNNALYPYFMRIVQQYTSLIREPISSPEQELRENVRDPYSLLSKIQPRVRWQSHMESQKKKQKEEAEKEKLEYAQIDWNDFVVVEVIQFTKSDEHAKLAKPTNLADLQTATLEQKSAMFTMPDQNYTIEEAPPTAEPWEPISAPKKQEFGVSLPPSLASPEKGGISSTTSVSPAAQASPVLSTTTQPKVQKPVPKAFQPKVPMEISPFSGELVPATELEEHMRLKLLDPRWQEQRKVEESRKSTLNLENVNVAANMKRLVSQRTDLFDVQNGVEISQEEIERRKRAATQSAWGATPTNKRR
# B3: Rsd1 (protein, UniProt O13845 1-603)
# chain: MQLDAEALAEAPFRKQEVPQNQENQQKASSSFHESSLTSSTHSHPSNPPPPPTRLHDRSFKPVSKNYESEGRLTPPPVSMGYRYARSSKQSFQREDSGYNDDVVTNSSSHRTPRHHRRSYSPRSDYGSRSPSPHSSVDSHQSRSPVRSRDRDRSSRSSRSRHPSSRSRHRYDDYSRSPPYSSRHSRSRRRYEERSSRSSRAHDYDYEDLRDDDRSHERKRSRSRPRERSSKLSEEERDRRTVFVSQLANRLTSRELYDFFEQAGPVRDAQIVRDKISGRSKGVAYVEFCHEDSVQAAIALSGKRLLGLPVIVQLTEAEKNRKAREAAELARAASAEIPFHRLCVSNIHFNLTDEDVKAIFEPFGDIEFVHLQRDDQNRSKGFGYIQYRNPISARNALEKMNGFDLAGRNMRVCLGNDKFTTETTSSMLKRFDETLARQERSQPSQRNGGSSTYESQDYREAAPLSPTEEESRPITRDELMKKLARSEDISDNSKLVSEPEPPIRSRCALLENMFNPAEETSPNWVQELEQDVKEECDEKYGKVVHIAVVPNELGQIFVKFENADFAEKAITGLHQRWFGGRTIKASILPETDYYFKFPNAKTA
# B4: Sap61 (protein, UniProt O59706 1-492)
# chain: MSESVLETERYAHEELERLQQAIVDRQVANPKAPRERLRLEHQSAQFLNQFRETSKKLLVSHESSDRLKDQEVARINADDDLTEFYKSLGEIQEFHKKYPDHKVEDLSQLYSIKPSQPGIDEIDTLFRGEEMYGRFMDLNECYEEYINLSNVQHISYLEYLKNLEDFDQIPKPEKNQTYINYITHLYEYLVSFYRRTHPLSNLDKIIAVFDTEFDAAWEAGLPGWYSHNAEAEKDGKDSTEAFYCEVCQKFFGKITVFEAHKKSKAHNKAVKRMQSSSPSTTSNTNEKQKGPKAIARIEFLIKKLTSLLDDVRKDTRENVVRRQTLTAAERLAEVEAAEREAFEQSTPSVSVEGNQDEESDQDDEEKIYNPLKLPLGWDGKPIPFWLWKLHGLGKEFPCEICGNYVYMGRKAFDKHFTEQRHIYGLKCLGISPSPLFNQITSIDEALQLWQKYKVDSKKRETTMASLNEMEDDEGNVMSEKVYNDLKAQGLL
# B5: Prp5 (protein, UniProt O13615 1-473)
# chain: MTEAKNISDDTDVLSLTTNSLRTSKTLFGAEFGSVTSFDDTVAQNLKRTYKEHLEYGSVLGGTVGKRKNRHYEEDTIGSNALTVRADSENPSSQVITKFSDPNKKIAGQVSMQSLEKIKGVPEAAHRIAGESQASLVKRTLAEQIRPEWHAPWTLMRVISGHLGWVRCVDVEPGNQWFCTGAGDRTIKIWDLASGVLKLTLTGHIATVRGLAVSPRHPYLFSCGEDKMVKCWDLETNKVIRHYHGHLSGVYALKLHPTLDVLVTAGRDAVARVWDMRTRQNVHVLSGHKSTVASLAVQEFDPQVVTGSMDSTIRLWDLAAGKTLTTLTHHKKTVRALSLHPDEFTFASGSSDNIKHWKFPEGAFMGNFEGHNAIVNTLSINSDNVMFSGADNGSMCFWDWKSGHKYQELQSVVQPGSLDSEAGIFASSFDKTGLRLITCEADKSVKIYKQVDNATPETHPNLPWTPSNLRRRY
# B6: Sap145 (protein, UniProt Q9UUI3 1-585)
# chain: MAEIQTAQNPLKELEKILERNNKQKNKKSRNQVRREKKKLLREKTNSGAKLAEKNSDDKDQLTENNDNLYNDKKSNGNFYDTNKTDSVDGMVYTTIVDSVELDPNDPLIEQFKDVFNRFKADGQEKDFEDTDKGQIMYSDDEILSEGEEDALQKQQEEKLSKKKLRKLKRMTVAQLKMLSEKADVVEWWDVSSLDPLFLTHLKAYPNTVPVPRHWNQKRDYLSGQRGIERQLFELPSYIRATGIVQMRNAVHENEADMPLRQKMRERVQPKMGKLDIDYQKLHDAFFRYQTKPVLTGFGECYFEGKELEADVKEKRPGDISEELREALGIAPGAPPPWLFAMQRYGPPPSYPDLKIPGVNCPIPTGAQWGFHPGGWGKPPVDQFNRPLYGDVFGNVKPRIHAGTGSPVSTQHWGELEEFEEEESSEEEESEDVEYPTEEITERETIEEYQSASEPRSQREDLHAEPLTYFNQSNVEVDNVELRKNTQPSSDAANRDLYQVLPEKSTNISGFMGPQHQYDIPTAEDTLPQKRNAHSMLSSTNKGDVALNQSSNWQDELSELVSEQAMKVGAAKRQKTQSKRDKFRL
# B7: Asf1/Cia1 (protein, UniProt O74515 1-262)
# chain: MSIVNILSVNVLNNPAKFSDPYKFEITFECLEPLKSDLEWKLTYVGSATSQSYDQILDTLLVGPIPIGINKFVFEADPPNIDLLPQLSDVLGVTVILLSCAYEDNEFVRVGYYVNNEMEGLNLQEMDDAEIKKVKVDISKVWRSILAEKPRVTRFNIQWDNPDFDDAPPVQPDADEEEEEEEADEMEEEFDEEGEGDEEEEEEDDGDGDGEGDGDGEGENDGKGSEEEEEEEIDIEEEEEESALANASAAEEKPEEKPETSQ
# Target: T1, FLAG-HA-Rbm10 (S. pombe)
# Experiment: affinity purification with mass spectrometry; two-step purification (anti-FLAG beads, 3xFLAG peptide elution, then uMACS HA magnetic beads) of overexpressed FLAG-HA-Rbm10 from S. pombe lysate with Benzonase; three independent purifications; control purification from an untagged strain
row,binding,Binder
1,binds,B1
2,binds,B2
3,binds,B3
4,binds,B4
5,binds,B5
6,binds,B6
7,binds,B7
